Measured values taken from patent publication US20170275356A1.

Assays:
[1] = target: rabbit IL-23 (rabbit); assay: SPR (BIAcore), 37 °C
[2] = target: cynomolgus monkey IL-23 (cynomolgus monkey); assay: SPR (BIAcore), 37 °C

B1: Antibody I (antibody, human IgG4 S228P, kappa, F234A L235A, V domains shown)
VH: QVQLVQSGAEVKKPGSSVKVSCKASGYKFTRYVMHWVRQAPGQGLEWMGYINPYNDGTNYNEKFKGRVTITADKSTSTAYMELSSLRSEDTAVYYCARNWDTGLWGQGTTVTVSS
VL: DIQMTQSPSSLSASVGDRVTITCKASDHILKFLTWYQQKPGKAPKLLIYGATSLETGVPSRFSGSGSGTDFTLTISSLQPEDFATYYCQMYWSTPFTFGGGTKVEIKR
Question: Which binding [1] does the source give for B1 here?
Answer: Its binding is “binds”.

Question: What about the binding [2] of the same binder?
Answer: The binding was “binds”.

Results are given in words; binding and its absence hold for the method and conditions named. Binding calls can cover weak binding; strength is not graded here.
